Experiment: peptide made by a vendor
Conditions: whole synthesis

cyclic R-R-R-R-R-R-R
purity (crude or final not stated): 97.93% purity
